Experimental data reported in patent US20050002904A1, “Uses of vascular endothelial growth factor and type I collagen inducible protein (VCIP)” (priority 2003, published 2005).
Results are given in words; binding and its absence hold for the method and conditions named. Some results given as binding are weak or reduced against the parent protein; the word gives no strength. Where a sequence is shown, tags or fusion partners need not be part of it.

Protein sequences, listed by entry. Tags and fused reporters are not part of them. Lines headed by an entry give the natural chain unless they say otherwise; changes in a name come on top.
UniProt P06756: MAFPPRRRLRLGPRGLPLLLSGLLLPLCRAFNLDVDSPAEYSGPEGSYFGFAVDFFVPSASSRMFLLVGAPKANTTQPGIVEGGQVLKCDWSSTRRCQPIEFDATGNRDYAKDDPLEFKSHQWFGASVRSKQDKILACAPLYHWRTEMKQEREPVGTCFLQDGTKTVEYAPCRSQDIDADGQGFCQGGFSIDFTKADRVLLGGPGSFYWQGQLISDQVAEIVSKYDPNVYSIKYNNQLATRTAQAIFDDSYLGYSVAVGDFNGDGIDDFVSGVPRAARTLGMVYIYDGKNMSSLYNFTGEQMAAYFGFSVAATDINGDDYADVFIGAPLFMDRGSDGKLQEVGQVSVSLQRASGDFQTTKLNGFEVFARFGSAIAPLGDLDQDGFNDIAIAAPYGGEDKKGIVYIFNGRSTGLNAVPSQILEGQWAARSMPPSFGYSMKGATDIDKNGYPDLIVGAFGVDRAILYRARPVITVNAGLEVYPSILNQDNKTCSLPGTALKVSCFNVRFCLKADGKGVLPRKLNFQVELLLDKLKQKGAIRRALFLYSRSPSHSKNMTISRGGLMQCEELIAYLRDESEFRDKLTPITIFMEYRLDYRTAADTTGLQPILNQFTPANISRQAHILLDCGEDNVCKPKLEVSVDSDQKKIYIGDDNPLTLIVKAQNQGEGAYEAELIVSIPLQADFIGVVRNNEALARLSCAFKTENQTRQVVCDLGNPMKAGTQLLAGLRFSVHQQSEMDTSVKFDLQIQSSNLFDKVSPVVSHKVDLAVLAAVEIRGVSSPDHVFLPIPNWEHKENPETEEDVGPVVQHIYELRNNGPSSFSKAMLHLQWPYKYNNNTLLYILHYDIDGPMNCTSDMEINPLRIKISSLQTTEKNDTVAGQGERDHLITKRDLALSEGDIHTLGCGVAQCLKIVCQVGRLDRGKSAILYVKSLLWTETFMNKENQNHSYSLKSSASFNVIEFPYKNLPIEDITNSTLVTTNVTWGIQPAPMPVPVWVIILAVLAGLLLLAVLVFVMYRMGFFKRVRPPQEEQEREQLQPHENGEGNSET
UniProt P08648: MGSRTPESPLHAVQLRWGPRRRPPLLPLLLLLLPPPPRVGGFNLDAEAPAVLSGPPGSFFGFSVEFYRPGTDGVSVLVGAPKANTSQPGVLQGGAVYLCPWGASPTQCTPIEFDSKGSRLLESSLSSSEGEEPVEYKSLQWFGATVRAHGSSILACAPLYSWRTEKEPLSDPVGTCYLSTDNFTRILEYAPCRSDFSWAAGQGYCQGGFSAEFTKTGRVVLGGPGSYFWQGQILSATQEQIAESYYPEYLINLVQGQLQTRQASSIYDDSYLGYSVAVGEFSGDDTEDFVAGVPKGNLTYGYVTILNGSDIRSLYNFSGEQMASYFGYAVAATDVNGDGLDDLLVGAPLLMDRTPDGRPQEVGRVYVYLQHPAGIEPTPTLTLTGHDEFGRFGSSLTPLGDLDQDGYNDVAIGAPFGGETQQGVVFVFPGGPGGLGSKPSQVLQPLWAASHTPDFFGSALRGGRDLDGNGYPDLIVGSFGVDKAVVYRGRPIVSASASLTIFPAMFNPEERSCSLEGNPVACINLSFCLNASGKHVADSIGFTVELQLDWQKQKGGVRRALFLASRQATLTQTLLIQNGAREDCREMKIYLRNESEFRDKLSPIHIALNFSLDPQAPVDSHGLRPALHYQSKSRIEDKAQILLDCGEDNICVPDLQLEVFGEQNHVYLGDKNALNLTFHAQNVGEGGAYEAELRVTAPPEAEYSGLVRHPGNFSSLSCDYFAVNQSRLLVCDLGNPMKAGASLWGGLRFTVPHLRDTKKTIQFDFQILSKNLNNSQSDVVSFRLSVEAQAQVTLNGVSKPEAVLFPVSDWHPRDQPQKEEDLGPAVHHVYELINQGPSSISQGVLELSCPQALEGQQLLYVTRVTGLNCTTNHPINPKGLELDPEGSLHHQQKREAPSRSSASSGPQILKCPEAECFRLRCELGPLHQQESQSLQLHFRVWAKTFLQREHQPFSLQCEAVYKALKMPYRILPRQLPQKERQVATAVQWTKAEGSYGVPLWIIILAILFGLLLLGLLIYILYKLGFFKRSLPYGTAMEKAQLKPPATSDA

Tests used:
soluble αvβ3 integrin [1] = molecular target: soluble αvβ3 integrin (UniProt P06756); experiment: solid-phase ligand binding ELISA, dose series (FIG. 10C)
soluble α5β1 integrin = soluble α5β1 integrin (UniProt P08648); experiment: solid-phase ligand binding ELISA, integrin immobilized, anti-GST detection
soluble αvβ3 integrin [2] = molecular target: soluble αvβ3 integrin (UniProt P06756); experiment: as above

Measured: binding

DIAKVSIGRLRPHFLSVCNPDFSQINCSEGYIQNYRCRGDDSKVQEARKS (peptide, not shown: a dimerising Fc or GST) [GST-VCIP-RGD fusion protein (wild-type glutathione S-transferase-VCIP-RGD)]
binds: all assays above
